Data as given in paper doi:10.1101/701250.
These are yes or no findings as the source states them, for the method shown. Some results given as binding are weak or reduced against the parent protein; the word gives no strength.

Amino acid sequences for entries named in this document (tags omitted).
UniProt P28741: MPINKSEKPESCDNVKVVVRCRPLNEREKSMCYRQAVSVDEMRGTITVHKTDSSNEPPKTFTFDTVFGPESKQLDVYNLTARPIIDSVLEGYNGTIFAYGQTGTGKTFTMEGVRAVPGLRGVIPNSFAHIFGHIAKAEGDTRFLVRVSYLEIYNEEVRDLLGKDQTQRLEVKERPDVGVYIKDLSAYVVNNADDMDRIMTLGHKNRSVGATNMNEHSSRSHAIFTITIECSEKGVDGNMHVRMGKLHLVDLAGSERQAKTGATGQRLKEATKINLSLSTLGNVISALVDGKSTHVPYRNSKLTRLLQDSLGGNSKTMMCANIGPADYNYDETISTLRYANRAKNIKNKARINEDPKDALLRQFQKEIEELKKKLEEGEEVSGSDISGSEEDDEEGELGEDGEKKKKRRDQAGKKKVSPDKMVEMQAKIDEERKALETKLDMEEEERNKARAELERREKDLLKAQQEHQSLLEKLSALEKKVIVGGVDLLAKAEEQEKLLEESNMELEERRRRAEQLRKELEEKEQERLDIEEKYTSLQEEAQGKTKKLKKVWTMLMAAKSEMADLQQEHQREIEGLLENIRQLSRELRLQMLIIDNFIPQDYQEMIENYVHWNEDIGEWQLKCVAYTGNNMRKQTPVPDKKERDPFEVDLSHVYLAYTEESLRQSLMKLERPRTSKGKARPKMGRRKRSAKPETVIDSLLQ

Target: T1, KIF3B (insect cell construct, co-expressed) (Mus musculus) (UniProt Q61771)
T1 sequence: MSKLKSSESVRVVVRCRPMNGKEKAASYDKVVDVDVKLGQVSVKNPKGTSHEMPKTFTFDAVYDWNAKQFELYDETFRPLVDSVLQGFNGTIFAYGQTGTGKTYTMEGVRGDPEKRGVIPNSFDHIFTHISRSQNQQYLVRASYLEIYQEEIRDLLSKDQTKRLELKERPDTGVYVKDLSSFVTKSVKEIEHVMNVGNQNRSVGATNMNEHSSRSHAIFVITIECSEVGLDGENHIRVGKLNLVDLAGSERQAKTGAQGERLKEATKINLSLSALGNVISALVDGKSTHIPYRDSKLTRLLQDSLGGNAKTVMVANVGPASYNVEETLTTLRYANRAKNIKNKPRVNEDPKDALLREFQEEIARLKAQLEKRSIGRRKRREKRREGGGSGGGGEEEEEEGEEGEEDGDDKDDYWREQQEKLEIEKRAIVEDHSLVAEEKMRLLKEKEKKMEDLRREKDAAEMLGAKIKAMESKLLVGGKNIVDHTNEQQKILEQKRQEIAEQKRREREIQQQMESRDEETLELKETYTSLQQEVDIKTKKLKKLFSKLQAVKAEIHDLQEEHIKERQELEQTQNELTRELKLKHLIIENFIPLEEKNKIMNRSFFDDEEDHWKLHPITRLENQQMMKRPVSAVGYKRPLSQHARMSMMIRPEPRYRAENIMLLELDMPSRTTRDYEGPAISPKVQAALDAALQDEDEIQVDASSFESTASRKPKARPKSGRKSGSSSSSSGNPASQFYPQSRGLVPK
Assay: affinity co-purification

KIF3A (insect cell construct, co-expressed) (from UniProt P28741 1-701)
binding: binds
